The list is a part of this screen's results and no random one: it gathers tests that were run many times, whatever their T/C, doses with no T/C, and many T/C values between a quarter and a half above the control. Further doses and runs are listed elsewhere. T/C is the treated group as % of the vehicle group. Some doses have a count of surviving animals in place of a T/C: the source files T/C as zero there, which appears to mark a toxic dose or a test without result, not a measured value. Some doses without a T/C left all or most animals alive at the check, yet need not have been tolerated: the source hardly ever lists a survival T/C far under the control, and the zero likely stands for such cases as well. Survivors were counted at the toxicity check, usually on the fifth day, unless a day is given; later deaths do not show. Schedules are NCI's codes, taken here to give the interval after Q, in days (D) or hours (H), and the number of doses after X. Some entries were tested several times; the results are listed from low to high. Some schedule codes hold Z or #, which are not explained here. For survival time, the PubChem record calls one and a half times the control and up active, and a quarter to a half above the control has no call in these data; cut-offs in other NCI protocols can differ. Some T/C values are followed by the survivors on the day toxicity was checked, most often the fifth; where none is given, no animal had died by that day.
Tested on: L1210 leukemia ip in BDF1 mice, survival T/C
Assay: NCI In Vivo Anticancer Drug Screen. Data for tumor model L1210 Leukemia (intraperitoneal) in B6D2F1 (BDF1) mice
Conditions: T/C endpoint: mean survival time, higher T/C = longer survival
[1] = dose: 100.0 mg/kg/injection, schedule: Q01DX009 (ip), vehicle: saline with Tween-80
[2] = dose: 200.0 mg/kg/injection, schedule: Q01DX009 (ip), vehicle: saline with Tween-80
[3] = dose: 60.0 mg/kg/injection, schedule: Q01DX001 (ip), vehicle: saline
[4] = dose: 300.0 mg/kg/injection, schedule: Q01DX001 (ip), vehicle: saline
[5] = dose: 400.0 mg/kg/injection, schedule: Q04DX003 (ip), vehicle: Klucel (hydroxypropylcellulose) (HPC)
[6] = dose: 200.0 mg/kg/injection, schedule: Q01DX009 (ip), vehicle: Klucel (hydroxypropylcellulose) (HPC)
[7] = dose: 35.0 mg/kg/injection, schedule: Q01DX015 (ip), vehicle: saline
[8] = dose: 50.0 mg/kg/injection, schedule: Q04DX003 (ip), vehicle: saline
[9] = dose: 52.5 mg/kg/injection, schedule: Q01DX015 (ip), vehicle: saline

## Nc1nc(Cl)c2[nH]cnc2n1
dose: 1.8 mg/kg/injection, schedule: Q01DX009 (ip), vehicle: saline with Tween-80
  T/C: 130 % of control
dose: 2.0 mg/kg/injection, schedule: Q01DX009 (ip), vehicle: saline with Tween-80
  T/C: 125 % of control
dose: 4.0 mg/kg/injection, schedule: Q01DX009 (ip), vehicle: saline with Tween-80
  T/C: 138 and 149 % of control
dose: 4.4 mg/kg/injection, schedule: Q01DX009 (ip), vehicle: saline with Tween-80
  T/C: 129 % of control
dose: 6.6 mg/kg/injection, schedule: Q01DX009 (ip), vehicle: saline with Tween-80
  T/C: 138 % of control
dose: 10.0 mg/kg/injection, schedule: Q01DX009 (ip), vehicle: saline with Tween-80
  T/C: 147 % of control
dose: 13.3 mg/kg/injection, schedule: Q04DX003 (ip), vehicle: saline with Tween-80
  T/C: 140 % of control
dose: 15.0 mg/kg/injection, schedule: Q01DX009 (ip), vehicle: saline with Tween-80
  T/C: 138 % of control
dose: 20.0 mg/kg/injection, schedule: Q04DX003 (ip), vehicle: saline with Tween-80
  T/C: 135 % of control
dose: 26.6 mg/kg/injection, schedule: Q04DX003 (ip), vehicle: saline with Tween-80
  T/C: 143 % of control
dose: 40.0 mg/kg/injection, schedule: Q04DX003 (ip), vehicle: saline with Tween-80
  T/C: 146 % of control
dose: 50.0 mg/kg/injection, schedule: Q01DX009 (ip), vehicle: saline with Tween-80
  T/C: 131 % of control
dose: 60.0 mg/kg/injection, schedule: Q04DX003 (ip), vehicle: saline with Tween-80
  T/C: 144 % of control
dose: 90.0 mg/kg/injection, schedule: Q04DX003 (ip), vehicle: saline with Tween-80
  T/C: 133 % of control
[1]
  T/C: 127 % of control
[2]
  T/C: 125 % of control
  survivor count: 5 of 6
dose: 300.0 mg/kg/injection, schedule: Q04DX009 (ip), vehicle: Klucel (hydroxypropylcellulose) (HPC)
  survivor count: 6 of 6

## CCc1ccc(/C=C\c2ccc(O)c(O)c2)[n+](C)c1
[3]
  survivor count: 0 of 6
dose: 75.0 mg/kg/injection, schedule: Q01DX001 (ip), vehicle: saline
  survivor count: 0 of 6
dose: 150.0 mg/kg/injection, schedule: Q01DX001 (ip), vehicle: saline
  survivor count: 0 of 6
[4]
  survivor count: 0 of 6

## c1ccc2cnccc2c1
dose: 400.0 mg/kg/injection, schedule: Q01DX009 (ip), vehicle: saline
  survivor count: 0 of 6

## CCCCCC1SC1CC1SC1CCCCCCCC(=O)NCCCOCCOCCOCC (configuration not stated)
dose: 400.0 mg/kg/injection, schedule: Q01DX009 (ip), vehicle: saline with Tween-80
  survivor count: 5 of 6

## CC1=CC2=C(C=O)C(=O)[C@](C)(O)[C@@H](O)C2=CO1
[1]
  survivor count: 5 of 6
[2]
  survivor count: 2 of 6
dose: 400.0 mg/kg/injection, schedule: Q04DX003 (ip), vehicle: saline with Tween-80
  survivor count: 1 of 6

## Cc1ccc(C)c(CCN)c1
dose: 200.0 mg/kg/injection, schedule: Q04DX003 (ip), vehicle: saline with Tween-80
  survivor count: 1 of 6

## CC(C)(N)Cc1ccc(Cl)cc1
dose: 400.0 mg/kg/injection, schedule: Q04DX003 (ip), vehicle: saline
  survivor count: 0 of 4

## O=C1OCC/C1=C\CCCCCCCCC1CO1 (configuration not stated)
dose: 200.0 mg/kg/injection, schedule: Q04DX002 (ip), vehicle: saline
  survivor count: 2 of 3
dose: 400.0 mg/kg/injection, schedule: Q04DX002 (ip), vehicle: saline
  survivor count: 0 of 3

## Nc1nc(-c2ccccc2N=NN2CCCCC2)nc2ccccc12
[5]
  survivor count: 4 of 6

## CC(=O)[O][Hg][CH]1CCC2OC1CC[CH]2[Hg][O]C(C)=O (configuration not stated)
dose: 50.0 mg/kg/injection, schedule: Q01DX009 (ip), vehicle: Klucel (hydroxypropylcellulose) (HPC)
  survivor count: 1 of 6
dose: 100.0 mg/kg/injection, schedule: Q01DX009 (ip), vehicle: Klucel (hydroxypropylcellulose) (HPC)
  survivor count: 3 of 6
dose: 100.0 mg/kg/injection, schedule: Q04DX003 (ip), vehicle: Klucel (hydroxypropylcellulose) (HPC)
  survivor count: 0 of 6 and 3 of 6
[6]
  survivor count: 0 of 6
dose: 200.0 mg/kg/injection, schedule: Q04DX003 (ip), vehicle: Klucel (hydroxypropylcellulose) (HPC)
  survivor count: 0 of 6
[5]
  survivor count: 0 of 6

## OCCOCCN1CCN(CC/C=C2\c3ccccc3Sc3ccc(C(F)(F)F)cc32)CC1
dose: 12.0 mg/kg/injection, schedule: Q04DX003 (ip), vehicle: saline with Tween-80
  T/C: 136 % of control
dose: 12.5 mg/kg/injection, schedule: Q04DX003 (ip), vehicle: saline
  survivor count: 2 of 6
dose: 15.5 mg/kg/injection, schedule: Q01DX015 (ip), vehicle: saline
  T/C: 91, 101, 113 [5 of 6 alive], 147 % of control
dose: 18.0 mg/kg/injection, schedule: Q04DX003 (ip), vehicle: saline with Tween-80
  T/C: 132 % of control
dose: 23.3 mg/kg/injection, schedule: Q01DX015 (ip), vehicle: saline
  survivor count: 4 of 6
dose: 25.0 mg/kg/injection, schedule: Q04DX003 (ip), vehicle: saline
  survivor count: 0 of 6
[7]
  T/C: 143 % of control
  survivor count: 5 of 6 and 6 of 6
[8]
  T/C: 142 % of control
  survivor count: 0 of 6
[9]
  T/C: 127 % of control
  survivor count: 3 of 6 and 4 of 6
dose: 80.0 mg/kg/injection, schedule: Q01DX009 (ip), vehicle: saline
  survivor count: 0 of 6
dose: 100.0 mg/kg/injection, schedule: Q01DX001 (ip), vehicle: saline
  T/C: 125 % of control
dose: 100.0 mg/kg/injection, schedule: Q04DX003 (ip), vehicle: saline
  survivor count: 0 of 6
dose: 105.0 mg/kg/injection, schedule: Q01DX015 (ip), vehicle: saline
  survivor count: 5 of 6
dose: 200.0 mg/kg/injection, schedule: Q01DX001 (ip), vehicle: saline
  survivor count: 0 of 4 and 0 of 6
dose: 200.0 mg/kg/injection, schedule: Q04DX003 (ip), vehicle: saline
  survivor count: 1 of 6
dose: 400.0 mg/kg/injection, schedule: Q01DX001 (ip), vehicle: saline
  survivor count: 0 of 4 and 0 of 6

## O=P(c1ccccc1)(N1CC1)N1CC1
[3]
  survivor count: 4 of 6
dose: 120.0 mg/kg/injection, schedule: Q01DX001 (ip), vehicle: saline
  survivor count: 0 of 6

## CCCCN=C1NC(N)=NC(C)(C)N1
dose: 400.0 mg/kg/injection, schedule: Q01DX001 (ip), vehicle: Klucel (hydroxypropylcellulose) (HPC)
  survivor count: 0 of 3

## [N-]=[N+]=Nc1nc(Cl)nc2c1ncn2Cc1ccccc1
dose: 150.0 mg/kg/injection, schedule: Q01DX001 (ip), vehicle: other
  survivor count: 0 of 6
dose: 300.0 mg/kg/injection, schedule: Q01DX001 (ip), vehicle: other
  survivor count: 0 of 6

## C/C(=N/N=C(N)N)C(F)(F)F
dose: 60.0 mg/kg/injection, schedule: Q01DX Z (ip), vehicle: saline
  survivor count: 0 of 6
dose: 60.0 mg/kg/injection, schedule: Q01DX Z (oral), vehicle: saline
  survivor count: 5 of 6
dose: 120.0 mg/kg/injection, schedule: Q01DX Z (ip), vehicle: saline
  survivor count: 0 of 6
dose: 120.0 mg/kg/injection, schedule: Q01DX Z (oral), vehicle: saline
  survivor count: 0 of 6

## CN=C(N)c1ccc(N=C(N)c2ccc(Cl)c(C(N)=Nc3ccc(C(N)=NC)cc3)c2)cc1
dose: 40.0 mg/kg/injection, schedule: Q01DX Z (ip), vehicle: water
  survivor count: 1 of 6
dose: 80.0 mg/kg/injection, schedule: Q01DX Z (ip), vehicle: water
  survivor count: 0 of 6

## COc1cc(/C=c2\[nH]c(=O)/c(=C/c3cc(OC)c(OC)c(OC)c3)[nH]c2=O)cc(OC)c1OC
[6]
  survivor count: 6 of 6

## C[n+]1ccc(/C=C/c2ccc(O)c3ccccc23)cc1
[4]
  survivor count: 0 of 6

## CCCCCCC(=O)CCCCCCCCCCCCC(=O)OC
[1]
  survivor count: 6 of 6
[2]
  survivor count: 6 of 6
